{
  "source": "the supplement of paper PMC4604168 (melanoma cell lines)",
  "note": "Some of the results follow. Many values rest on one well or one pass, so single values are uncertain.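 The apoptosis fraction was the count of cleaved-PARP antibody-stained nuclei relative to all DNA-stained nuclei, imaged in 1,536-well plates. Screening doses were set so most cells survived, and baseline and induced cleaved-PARP levels vary greatly across cell lines.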",
  "data": [
    {"tested_on": "CBRC017 (line from a melanoma biopsy)", "assay": "cleaved PARP positive nuclei fraction relative to DMSO control; melanoma cells; higher = more apoptosis", "conditions": "library dose: low library concentration; 72 h", "units": {"cleaved PARP positive nuclei fraction": "%"}, "values": [
      {"smiles": "CCc1ccc(CCOc2ccc(CC3SC(=O)NC3=O)cc2)nc1", "note": "(stereo unspecified) [pioglitazone] + COc1ccc2c(c1)CCC1C2CCC2(C)C(NCCCCCCN3C(=O)C=CC3=O)CCC12 [U73122] (first compound 2 µM, partner dose 0.4 µM)", "cleaved PARP positive nuclei fraction": 118},
      {"smiles": "COc1cc(N2CCC(N3CCN(C)CC3)CC2)ccc1Nc1ncc(Cl)c(Nc2ccccc2S(=O)(=O)C(C)C)n1", "note": "+ CCCCCCCCCCCC1=C(O)C(=O)C=C(O)C1=O [Embelin] (first compound 0.08 µM, partner dose 1.2 µM)", "cleaved PARP positive nuclei fraction": 158},
      {"smiles": "N#Cc1c(O)c2c(-c3ccc(-c4ccccc4O)cc3)csc2[nH]c1=O", "note": "+ COc1ccc(-c2ccc3c(N4CCOCC4)nc(N4C[C@@H](C)O[C@@H](C)C4)nc3n2)cc1CO [KU0063794] (first compound 2 µM, partner dose 0.02 µM)", "cleaved PARP positive nuclei fraction": 165},
      {"smiles": "NCC(=O)Nc1ccc(-n2nc(C(F)(F)F)cc2-c2ccc3c(ccc4ccccc43)c2)cc1", "note": "+ O=S(=O)(c1ccccc1)N(CC(F)(F)F)c1ccc(C(O)(C(F)(F)F)C(F)(F)F)cc1 [T0901317] (first compound 1 µM, partner dose 1.4 µM)", "cleaved PARP positive nuclei fraction": 106},
      {"smiles": "O=C1NC(=O)/C(=C/c2ccc(-c3ccc(F)cc3O)o2)S1", "note": "+ CC(C)CCN1c2nc(Nc3cc(F)c(O)c(F)c3)ncc2N(C)C(=O)C1C [BID1870] (first compound 1 µM, partner dose 0.2 µM)", "cleaved PARP positive nuclei fraction": 54.7},
      {"smiles": "NCC(=O)Nc1ccc(-n2nc(C(F)(F)F)cc2-c2ccc3c(ccc4ccccc43)c2)cc1", "note": "+ O=C(Nc1ccccc1)c1cc([N+](=O)[O-])ccc1Cl [GW9662] (first compound 1 µM, partner dose 2 µM)", "cleaved PARP positive nuclei fraction": 71.5},
      {"smiles": "O=S(=O)(c1ccccc1)N(CC(F)(F)F)c1ccc(C(O)(C(F)(F)F)C(F)(F)F)cc1", "note": "+ c1cc(-c2cnn3cc(-c4ccc(OCCN5CCCCC5)cc4)cnc23)ccn1 [Dorsomorphin] (first compound 1.4 µM, partner dose 0.4 µM)", "cleaved PARP positive nuclei fraction": 97.2},
      {"smiles": "COc1ccc(COc2ccc(Cc3cnc(N)nc3N)cc2OC)cc1", "note": "+ Cn1cc(/C=C2\\C(=O)Nc3cccnc32)c2ccccc21 [GW441756] (first compound 1 µM, partner dose 0.4 µM)", "cleaved PARP positive nuclei fraction": 93.8},
      {"smiles": "Oc1cc(-c2nc(-c3ccccc3)[nH]c2-c2ccncc2)ccc1Cl", "note": "+ c1cc(-c2cnn3cc(-c4ccc(OCCN5CCCCC5)cc4)cnc23)ccn1 [Dorsomorphin] (first compound 0.2 µM, partner dose 0.4 µM)", "cleaved PARP positive nuclei fraction": 88},
      {"smiles": "COc1ccc2c(c1)CCC1C2CCC2(C)C(NCCCCCCN3C(=O)C=CC3=O)CCC12", "note": "(stereo unspecified) + CC(C)CCN1c2nc(Nc3cc(F)c(O)c(F)c3)ncc2N(C)C(=O)C1C [BID1870] (first compound 0.4 µM, partner dose 0.2 µM)", "cleaved PARP positive nuclei fraction": 110},
      {"smiles": "O=C1NC(=O)/C(=C/c2ccc(-c3ccc(F)cc3O)o2)S1", "note": "+ c1cc(-c2cnn3cc(-c4ccc(OCCN5CCCCC5)cc4)cnc23)ccn1 [Dorsomorphin] (first compound 1 µM, partner dose 0.4 µM)", "cleaved PARP positive nuclei fraction": 78.1},
      {"smiles": "O=C(O)C(=O)Nc1sc2c(c1C(=O)O)CCNC2", "note": "+ Oc1nc(-c2ccc(C(F)(F)F)cc2)nc2c1CSCC2 [XAV939] (first compound 1.66667 µM, partner dose 2 µM)", "cleaved PARP positive nuclei fraction": 66.4},
      {"smiles": "Oc1cc(-c2nc(-c3ccccc3)[nH]c2-c2ccncc2)ccc1Cl", "note": "+ Cc1cc([N+](=O)[O-])ccc1NS(=O)(=O)c1cc(Cl)ccc1Cl [FH535] (first compound 0.2 µM, partner dose 1 µM)", "cleaved PARP positive nuclei fraction": 749},
      {"smiles": "CN(C)S(=O)(=O)c1ccc2c(c1)/C(=C/c1cc3c([nH]1)CCCC3)C(=O)N2", "note": "+ O=S(=O)(c1ccccc1)N(CC(F)(F)F)c1ccc(C(O)(C(F)(F)F)C(F)(F)F)cc1 [T0901317] (first compound 0.4 µM, partner dose 1.4 µM)", "cleaved PARP positive nuclei fraction": 105},
      {"smiles": "N#Cc1c(O)c2c(-c3ccc(-c4ccccc4O)cc3)csc2[nH]c1=O", "note": "+ O=C(O)C(=O)Nc1sc2c(c1C(=O)O)CCNC2 [TCS401] (first compound 2 µM, partner dose 1.66667 µM)", "cleaved PARP positive nuclei fraction": 76.9},
      {"smiles": "O=C1NC(=O)/C(=C/c2ccc(-c3ccc(F)cc3O)o2)S1", "note": "+ Oc1nc(-c2ccc(C(F)(F)F)cc2)nc2c1CSCC2 [XAV939] (first compound 1 µM, partner dose 2 µM)", "cleaved PARP positive nuclei fraction": 152}
    ]}
  ]
}
